Data as given in publication doi:10.1101/2020.04.17.046268.
No constants are given. Whether binding was seen depends on the method and setting. Binding seen in cells or lysates may run through a third protein. Some binding calls cover weakened binding; strength is not graded here.

Amino acid sequences for entries named in this document (tags omitted).
UniProt Q99592: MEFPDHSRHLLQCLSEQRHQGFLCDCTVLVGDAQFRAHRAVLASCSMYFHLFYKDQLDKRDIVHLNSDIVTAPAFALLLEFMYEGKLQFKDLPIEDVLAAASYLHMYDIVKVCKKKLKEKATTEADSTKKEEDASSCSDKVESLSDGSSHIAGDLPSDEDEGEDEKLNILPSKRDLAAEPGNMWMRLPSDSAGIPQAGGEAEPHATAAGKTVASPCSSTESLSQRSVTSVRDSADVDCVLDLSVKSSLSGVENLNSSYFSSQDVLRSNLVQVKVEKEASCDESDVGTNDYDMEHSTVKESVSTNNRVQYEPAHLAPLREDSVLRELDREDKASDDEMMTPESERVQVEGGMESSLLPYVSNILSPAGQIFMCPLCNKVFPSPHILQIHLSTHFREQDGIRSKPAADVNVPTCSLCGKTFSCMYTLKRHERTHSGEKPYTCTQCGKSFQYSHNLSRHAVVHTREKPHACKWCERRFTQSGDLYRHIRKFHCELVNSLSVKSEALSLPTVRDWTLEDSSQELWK
UniProt O75362: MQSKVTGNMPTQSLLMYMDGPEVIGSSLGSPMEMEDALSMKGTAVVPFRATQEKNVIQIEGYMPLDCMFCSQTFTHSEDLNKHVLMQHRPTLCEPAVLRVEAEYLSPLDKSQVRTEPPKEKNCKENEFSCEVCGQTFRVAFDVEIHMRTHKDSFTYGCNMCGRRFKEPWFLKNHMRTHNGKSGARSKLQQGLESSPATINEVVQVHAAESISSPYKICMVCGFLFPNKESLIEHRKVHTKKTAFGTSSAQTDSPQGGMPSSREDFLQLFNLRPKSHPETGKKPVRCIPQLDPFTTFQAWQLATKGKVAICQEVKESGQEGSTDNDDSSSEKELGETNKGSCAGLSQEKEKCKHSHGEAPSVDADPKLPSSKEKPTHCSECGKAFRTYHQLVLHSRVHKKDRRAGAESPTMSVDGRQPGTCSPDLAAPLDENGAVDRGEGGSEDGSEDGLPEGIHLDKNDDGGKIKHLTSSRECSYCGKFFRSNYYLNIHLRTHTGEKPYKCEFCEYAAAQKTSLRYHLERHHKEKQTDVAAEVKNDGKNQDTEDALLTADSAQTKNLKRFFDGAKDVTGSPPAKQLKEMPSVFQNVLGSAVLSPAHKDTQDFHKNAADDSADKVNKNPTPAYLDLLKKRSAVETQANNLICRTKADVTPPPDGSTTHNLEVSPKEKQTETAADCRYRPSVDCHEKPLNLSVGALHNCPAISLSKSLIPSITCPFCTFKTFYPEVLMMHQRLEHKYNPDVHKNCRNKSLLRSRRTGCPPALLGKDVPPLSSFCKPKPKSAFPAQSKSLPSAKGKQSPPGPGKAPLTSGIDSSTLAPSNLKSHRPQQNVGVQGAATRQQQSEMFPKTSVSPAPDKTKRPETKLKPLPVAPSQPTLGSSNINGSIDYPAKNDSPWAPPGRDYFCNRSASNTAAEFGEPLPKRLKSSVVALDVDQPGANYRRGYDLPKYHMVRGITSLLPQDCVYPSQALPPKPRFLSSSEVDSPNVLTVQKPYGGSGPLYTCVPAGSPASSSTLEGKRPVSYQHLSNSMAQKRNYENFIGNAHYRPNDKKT

Columns and labels:
Assay in all cases: co-IP
[1] = target: FLAG-ZBTB18 (UniProt Q99592)
[2] = target: ZBTB18 (endogenous) (human (endogenous in BTSC3082, BTSC268, BTSC475)) (UniProt Q99592)
[3] = target: CTBP2 (C-terminal binding protein 2) (human (endogenous in BTSC lines, SNB19, LN229)) (UniProt P56545)

| Substance | binding [1] | binding [2] | binding [3] |
| --- | --- | --- | --- |
| CTBP2 (C-terminal binding protein 2) (from UniProt P56545 1-445) | binds | binds | – |
| ZNF217 (from UniProt O75362 1-1048) | – | – | binds |
| ZBTB18 (endogenous) (from UniProt Q99592 1-522) | – | – | binds weakly |
